Residue numbers refer to the chain shown, from its start. These are yes or no findings as the source states them, for the method shown. A result given as binding can be weak or reduced; the word gives no strength. For some of these results: In cells and extracts the contact can be indirect. For some of these results: Sequences can lack the tags named with a protein.
Key:
[1] = target: T1, StREM1.3^(S74D T86D S91D) phosphomimic variant, split-ubiquitin yeast two-hybrid bait (Solanum tuberosum) (UniProt P93788); test: two-hybrid
T1 sequence: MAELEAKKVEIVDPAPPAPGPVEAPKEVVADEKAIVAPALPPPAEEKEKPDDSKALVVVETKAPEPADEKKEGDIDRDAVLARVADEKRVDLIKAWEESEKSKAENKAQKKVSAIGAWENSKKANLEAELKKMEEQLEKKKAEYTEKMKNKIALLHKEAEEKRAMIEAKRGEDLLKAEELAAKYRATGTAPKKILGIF

[2] = target: T2, GFP-StREM1.3 (Solanum tuberosum) (UniProt P93788); test: co-IP
T2 sequence: T1 sequence with D74S, D86T, D91S

Substance | binding [1] | binding [2]
Autophagy 8i (NbATG8i) (Nicotiana benthamiana) | binds | 
Calreticulin 3 (NbCRT3) (Nicotiana benthamiana) | binds | 
Delta tonoplast integral protein (NbTIP2;1) (Nicotiana benthamiana) | binds | 
Metallothionein 2B (NbMT2B) (Nicotiana benthamiana) | binds | 
N. benthamiana Actin Depolymerizing Factor 3 (NbADF3) (Nicotiana benthamiana) | binds | 
Plasma membrane intrinsic protein 1C (NbPIP1C) (Nicotiana benthamiana) | binds | 
RFP-StADF2 (Solanum tuberosum actin depolymerizing factor 2) |  | binds
